Experimental data published in US7994334B2, “Fungicide pyridinyloxy substituted phenylamidine derivatives” (Bayer Cropscience AG, priority 2005, dated 2011).
Some results were stated once for a whole list of compounds, not compound by compound. For at least one compound, name, drawing or mass did not settle the structure.

How the values were obtained:
Sphaerotheca fuliginea = assay: In vivo protective test on Sphaerotheca fuliginea (cucumbers); details: 100 ppm of active ingredient, evaluated 7 days after inoculation
Podosphaera leucotricha = assay: In vivo protective test on Podosphaera leucotricha (apples); details: 100 ppm of active ingredient, evaluated 10 days after inoculation
[1] = test system: Erysiphe graminis f.sp. hordei; assay: In vivo preventive test on Erysiphe graminis (powdery mildew on barley); details: 1000 ppm of active ingredient, evaluated 7 days after inoculation
Alternaria solani = assay: In vivo protective test on Alternaria solani (leaf spot of tomato); details: 500 ppm of active ingredient, evaluated 7 days after inoculation
[2] = test system: Puccinia recondite f. Sp. tritici (Wheat Brown Rust); assay: In vivo preventive test on Puccinia recondita (wheat brown rust); details: 1000 ppm of active ingredient, evaluated 10 days after inoculation

Measured: efficacy

CCN(C)C=Nc1cc(C)c(Oc2cc(C(F)(F)F)cc(Cl)n2)cc1C [Example 1, N-Ethyl-N-methyl-N′-[4-(2-chlor-4-trifluormethylpyridyl-6-oxy)-2,5-xylyl]form-amidine]
≥ 70%: all assays above
